Experimental data reported in patent publication US20240075093A1, “COMPOSITIONS AND METHODS OF TREATING A PI3K MEDIATED DISEASE” (VIRGINIA TECH INTELLECTUAL PROPERTIES, INC., priority 2020, published 2024).
pIC50: −log10 of the molar value. For some assays here: Not every detail of the peptide structures is certain; ends, links or a residue may be inferred. For some assays here: For at least one compound, name, drawing or mass did not settle the structure. Where no end group is shown, it is not given here.

Amino acid sequences for entries named in this document (tags omitted). A change or cut given only in a name is not applied to a line headed by its entry.
UniProt P42338: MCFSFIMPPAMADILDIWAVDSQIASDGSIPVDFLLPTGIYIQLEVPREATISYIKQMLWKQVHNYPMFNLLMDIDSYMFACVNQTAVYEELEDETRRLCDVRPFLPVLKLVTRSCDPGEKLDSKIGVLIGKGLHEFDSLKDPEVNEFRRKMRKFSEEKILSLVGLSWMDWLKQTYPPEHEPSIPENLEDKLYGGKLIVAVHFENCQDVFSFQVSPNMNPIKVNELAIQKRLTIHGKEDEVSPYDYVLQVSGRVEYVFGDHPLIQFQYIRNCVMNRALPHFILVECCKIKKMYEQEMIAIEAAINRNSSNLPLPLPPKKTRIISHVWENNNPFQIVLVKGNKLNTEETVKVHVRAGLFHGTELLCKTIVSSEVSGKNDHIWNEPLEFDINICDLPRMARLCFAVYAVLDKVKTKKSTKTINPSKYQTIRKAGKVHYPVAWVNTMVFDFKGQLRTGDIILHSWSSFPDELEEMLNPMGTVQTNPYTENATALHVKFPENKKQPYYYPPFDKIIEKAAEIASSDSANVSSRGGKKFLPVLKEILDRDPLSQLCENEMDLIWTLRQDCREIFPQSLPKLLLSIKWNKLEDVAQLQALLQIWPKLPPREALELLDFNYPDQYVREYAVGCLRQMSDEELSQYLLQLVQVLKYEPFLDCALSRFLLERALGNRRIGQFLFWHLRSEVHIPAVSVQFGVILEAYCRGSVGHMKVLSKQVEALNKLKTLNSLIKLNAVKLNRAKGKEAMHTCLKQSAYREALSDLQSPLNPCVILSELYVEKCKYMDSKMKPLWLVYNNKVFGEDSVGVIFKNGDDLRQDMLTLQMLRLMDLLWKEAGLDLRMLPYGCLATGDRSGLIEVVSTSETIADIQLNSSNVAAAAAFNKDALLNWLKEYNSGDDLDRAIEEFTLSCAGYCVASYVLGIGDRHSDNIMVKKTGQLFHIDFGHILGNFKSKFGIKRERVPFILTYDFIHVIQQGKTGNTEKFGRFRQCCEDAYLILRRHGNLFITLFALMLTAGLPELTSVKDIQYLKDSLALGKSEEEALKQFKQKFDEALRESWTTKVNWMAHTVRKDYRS

Columns and labels:
p110β^hyper cells = experiment: melanoma cell viability (CellTiter Blue); assay type: cell-based; conditions: 0-40 μM of inhibitors; p110β^hyper cells versus MelST
Procedure: (FIG. 49A) Immunoblotting of p110s and signaling molecules. 3-actin (ACTB) was used as the loading control. (FIG. 49B) Summary of genetic mutations and protein levels in melanoma cells. Information regarding hot spot mutations was retrieved from e.g., DepMap. (FIG. 49C) Cells were treated with 0-40 μM of inhibitors. Cell viability was measured using CellTiter Blue. IC50s were calculated using Graphpad.
(FIG. 52A) Cells were treated with 10 μM Selectide-18-FITC for 1 h and imaged immediately or after 96h. (FIG. 52B) Selectide-18-FITC in melanoma cells were imaged at different times. FITC was quantified using Image J and FITC intensities at different times were normalized with that at 1 h. Half-life was calculated using GraphPad. (FIG. 52C) UACC-62, MelST, or MeWo cells were treated with 50 μM of Selectide-18 for 4 days with daily repeated dosing. (FIG. 52D) MelST or melanoma cells were treated with 50 μM of Selectide-18 for 6 days with daily repeated dosing. Cell viability was measured using Cell-Titer Blue. (FIG. 52E) MelST, UACC-62, or MeWo cells were treated with Scramble or Selectide-18 at different doses. IC50s were calculated using GraphPad. (FIG. 52F) Nod scid mice bearing UACC-62 subcutaneous tumors were treated with Selectide-18 (3 mg/kg) intratumoral injection/daily) for 16 days. Tumors were measured using a caliper and tumor volumes were calculated as (length×width2))/2. […]

U87MG cells = experiment: MTS cell viability assay; assay type: cell-based, human
Procedure: Cell viability was measured by the MTS assay. P values were determined using the student t test or one-way ANOVA. Error bars represent three independent experiments.
Cell viability was determined using the MTS viability assay. The vehicle DMSO was the control and set as 100%. Treated cells were normalized to DMSO-treated cells. […] (FIG. 43D) Scores of Excess Over Bliss in FIG. 43C calculated using the Bliss Independence model. One-way ANOVA and student t test were used to determine statistical significance.
Cell viability was determined by the MTS cell viability assay (Promega) as described previously 21,24-27. In brief, 250 to 1,000 cells were plated in the wells of a 96-well plate-based upon the cell growth rate. Because the drug treatment usually takes 6-7 days, fast-growing cells could be over-grown if plated at a high cell density. For αCT1 treatment experiments, Applicant intended to plate cells at a low density to minimize the formation of gap junctions, and thus, more Cx43-hemichannels can be present. […] At each hour time point, the absorbance at 490 nm was measured using a FilterMax F3 microplate reader (Molecular Devices, LLC) according to the manufacturer's instructions. Percent cell viability was obtained by dividing the absorbance of treatment groups to those of untreated and respective vehicle control groups.

p110β and Cx43 = target: T1, p110β and Cx43 (Homo sapiens, UniProt P42338); experiment: co-immunoprecipitation in U87MG cell lysates; assay type: binding; conditions: cell lysates treated with 100 μM αCT1
T1 construct: Co-immunoprecipitation of Cx43 and p110β in U87MG cell lysates treated with 100 μM αCT1; endogenous in cells; host or cells: U87MG

[1] = test system: LN229/GSC xenograft tumors; conditions: αCT1 alone with TMZ; cited from earlier work
[2] = test system: signaling pathways in U87MG cells; experiment: immunoblotting of signaling pathways in U87MG cells; assay type: cell-based, human; conditions: 100 μM αCT1, 4 days
[3] = test system: SF295, LN229, and LN229/GSC cells; experiment: ATP/glutamate release; assay type: cell-based; conditions: 100 μM αCT1
p110b = p110b (Homo sapiens, UniProt P42338); experiment: p110b activity ELISA (cell-free kinase assay); assay type: biochemical; conditions: increasing doses
Text: The activity of the p110b PI3K catalytic subunit was monitored via ELISA upon increasing doses of Ante-Selectide-18.
Relative activity is the ratio of respective treated groups to their non-treated controls.
(FIG. 51A) 3D of a p110β/p85α complex determined by SWISS-MODEL and Cluspro. (FIG. 51B) Protein sequences were aligned using COBALT. C2 domains (top) are show. Red bars: same residues; Grey bars: different residues; Red lines: missing residues. […] in p110β C2 (bottom) is shown and termed as 018. Docking of p110β and p85α (FIG. 51C) or p110α and p85α (FIG. 51D) was done by SWISS-MODEL, Cluspro, and Chimera. The 018 motif is labeled in magenta. Deletion of β18 motif (FIG. 51E) changed the 3D shapes of p110β/p85 (FIG. 51C). (FIG. 51F) p110β cell-free kinase assay. An enzyme-linked immunosorbent assay (ELISA) was used to measure levels of lipids PIP2/PIP3. (FIG. 51G) Effect of PI3K inhibitors on p110s using ELISA. p110β (FIG. 51H) or p110α (FIG. 51I) was docked with Selectide-18-bound p85α using Cluspro/Chimera.
Applicant also included a control scramble peptide containing the antennapedia sequence followed by the amino acid sequence of Ante-Selectide-18 randomly scrambled. […]

CC[C@H](Nc1ncnc2[nH]cnc12)c1nc2cccc(F)c2c(=O)n1-c1ccccc1 [CAL-101]
selective inhibition of cell viability (p110β^hyper cells): did not show a selective inhibition of cell viability

RQPKIWFPNRRKPWKKRPRPDDLEI [αCT1]
synergy on cell viability (EOB, Bliss) (U87MG cells; 2.5 to 10 μM αCT1 with TMZ/TGX-221): weak synergistic effect | synergy on cell viability (EOB, Bliss) (U87MG cells; 12.5 to 50 μM αCT1 with TMZ/TGX-221): much stronger synergistic inhibition | co-precipitation with p110β and Cx43 (p110β and Cx43): pulled down together with p110β and Cx43 | sensitivity of xenograft tumors to TMZ [1]: increases the sensitivity | decrease of phosphorylated AKT (pAKT-S473) [2]: 5 fold | levels of pcRAF-S338, pERK-T202/T204, or pSRC-T416 [2]: modestly reduced | phosphorylation of Cx43 at serine 368 (pCx43-S368) [2]: blocked phosphorylation | ATP or glutamate levels in cells [3]: remained unchanged | levels of ATP or glutamate in culture media [3]: either elevated or remained unchanged

TKKSTKTINPSKYQTIRK [Selectide-18]
pIC50 (p110b): 6.98
